Reference: PMC9018728
Results are given in words; binding and its absence hold for the method and conditions named. In cells and extracts the contact can be indirect. Some entries that bind do so weakly or less than the wild type. Sequences can lack the tags named with a protein.

By UniProt entry, the sequences of proteins in these tests, tags left out.
UniProt Q92754: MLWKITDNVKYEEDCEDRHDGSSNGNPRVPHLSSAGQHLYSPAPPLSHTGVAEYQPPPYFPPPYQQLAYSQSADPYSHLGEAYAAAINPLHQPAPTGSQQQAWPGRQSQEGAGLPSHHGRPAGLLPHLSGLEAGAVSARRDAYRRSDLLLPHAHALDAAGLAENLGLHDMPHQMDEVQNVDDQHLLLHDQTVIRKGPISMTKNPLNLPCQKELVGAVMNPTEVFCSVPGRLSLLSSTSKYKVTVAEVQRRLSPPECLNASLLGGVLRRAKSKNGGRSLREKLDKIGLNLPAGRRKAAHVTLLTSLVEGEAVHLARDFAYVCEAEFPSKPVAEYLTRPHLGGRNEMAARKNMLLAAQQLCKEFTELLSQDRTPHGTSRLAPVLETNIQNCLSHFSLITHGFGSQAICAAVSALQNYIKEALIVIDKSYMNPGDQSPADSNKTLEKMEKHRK

T1: HA-ZEB1 (doxycycline-induced in MCF7-V-ZEB1 cells) (UniProt P37275)
T1 sequence: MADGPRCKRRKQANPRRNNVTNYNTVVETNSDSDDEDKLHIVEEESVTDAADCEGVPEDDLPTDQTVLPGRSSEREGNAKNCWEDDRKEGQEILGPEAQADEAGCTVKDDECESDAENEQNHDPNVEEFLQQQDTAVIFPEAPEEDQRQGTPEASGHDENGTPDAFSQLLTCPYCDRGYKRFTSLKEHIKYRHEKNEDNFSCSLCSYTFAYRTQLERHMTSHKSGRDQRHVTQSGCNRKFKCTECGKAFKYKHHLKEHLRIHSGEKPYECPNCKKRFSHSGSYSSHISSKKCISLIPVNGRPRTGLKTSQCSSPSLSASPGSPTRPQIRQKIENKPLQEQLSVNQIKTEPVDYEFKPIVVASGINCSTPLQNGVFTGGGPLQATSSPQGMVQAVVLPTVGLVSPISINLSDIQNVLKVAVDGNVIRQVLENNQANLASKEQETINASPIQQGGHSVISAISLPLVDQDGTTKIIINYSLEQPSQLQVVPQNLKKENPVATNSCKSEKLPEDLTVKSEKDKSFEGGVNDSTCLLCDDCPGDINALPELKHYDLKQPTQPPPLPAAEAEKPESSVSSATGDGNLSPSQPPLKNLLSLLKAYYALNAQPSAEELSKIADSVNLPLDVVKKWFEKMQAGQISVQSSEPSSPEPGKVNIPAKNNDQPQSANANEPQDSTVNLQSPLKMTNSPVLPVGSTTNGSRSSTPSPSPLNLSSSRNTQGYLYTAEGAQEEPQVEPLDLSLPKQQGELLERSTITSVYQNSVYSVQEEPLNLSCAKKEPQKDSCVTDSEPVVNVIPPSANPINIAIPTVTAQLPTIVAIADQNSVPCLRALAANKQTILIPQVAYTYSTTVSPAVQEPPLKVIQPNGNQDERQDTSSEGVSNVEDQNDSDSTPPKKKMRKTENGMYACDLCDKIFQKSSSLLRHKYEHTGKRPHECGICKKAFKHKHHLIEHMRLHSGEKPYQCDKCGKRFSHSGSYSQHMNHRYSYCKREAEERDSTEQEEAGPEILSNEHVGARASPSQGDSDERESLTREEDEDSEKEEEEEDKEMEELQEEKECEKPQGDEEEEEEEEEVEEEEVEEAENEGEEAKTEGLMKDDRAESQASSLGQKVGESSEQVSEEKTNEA


Molecular target: T1, HA-ZEB1 (doxycycline-induced in MCF7-V-ZEB1 cells)
Assay: co-IP; co-IPs from whole-cell extracts (Supplementary Fig. 5b); cells and the precipitated protein not told in the text shown

Molecule	binding
AP2γ (from UniProt Q92754 1-450)	binds
FOXA1 (protein, UniProt P55317 1-472) MLGTVKMEGHETSDWNSYYADTQEAYSSVPVSNMNSGLGSMNSMNTYMTMNTMTTSGNMTPASFNMSYANPGLGAGLSPGAVAGMPGGSAGAMNSMTAAGVTAMGTALSPSGMGAMGAQQAASMNGLGPYAAAMNPCMSPMAYAPSNLGRSRAGGGGDAKTFKRSYPHAKPPYSYISLITMAIQQAPSKMLTLSEIYQWIMDLFPYYRQNQQRWQNSIRHSLSFNDCFVKVARSPDKPGKGSYWTLHPDSGNMFENGCYLRRQKRFKCEKQPGAGGGGGSGSGGSGAKGGPESRKDPSGASNPSADSPLHRGVHGKTGQLEGAPAPGPAASPQTLDHSGATATGGASELKTPASSTAPPISSGPGALASVPASHPAHGLAPHESQLHLKGDPHYSFNHPFSINNLMSSSEQQHKLDFKAYEQALQYSPYGSTLPASLPLGSASVTTRSPIEPSALEPAYYQGVYSRPVLNTS	binds
